This assay has as its system Salmonella enterica serovar Typhimurium SL1344. The assay is described as follows: bacterial growth OD600 after 18 h with compound and polymyxin B; higher = more bacterial growth (less inhibition). The following applies: 50 µM, Mueller-Hinton broth.

Consider 20 molecules from the supplement of paper PMC12889115.

Structures are written as SMILES. The list shows a part of the results. Values are raw readings; no control value is given beside them.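 In the initial screen, polymyxin B was used at a concentration that permeabilizes Salmonella's outer membrane but not its inner membrane. Maximum growth was set by DMSO wells with or without polymyxin B. Since plates varied, data were ranked per plate, and compounds giving the lowest OD600 advanced as hits.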

As to `O=C(Cn1cncn1)N1CCC(C2CCN(Cc3cccc(F)c3F)CC2)C1` (stereo not given), the “bacterial growth OD600” value (polymyxin B 0.75 µg/mL) worked out at 0.846. On the same count and under the same terms, the result for `CO[C@H]1[C@H](NC(=O)Cc2cccs2)c2ccccc2C12CCN(Cc1ccccc1C)CC2` reads 0.77. For `CC(C)CC(=O)Nc1ccnn1C1CCN(C(=O)c2ccccc2F)CC1`, the “bacterial growth OD600” value (polymyxin B 1 µg/mL) was found to be 0.861. Take `O=C(NC1CC1)C1CCCN(C2CCN(C(=O)CC3CCCC3)CC2)C1` (stereo not given): the “bacterial growth OD600” value (polymyxin B 0.75 µg/mL) amounted to 0.813. Consider `COc1cc(C)ccc1OCc1nc(C(=O)N2CCCO2)co1`, for which the “bacterial growth OD600” value (polymyxin B 1 µg/mL) stood at 0.855.

`COc1cc(CNC2COc3ccccc3C2)cc(OC)c1O` (stereo not given): under “polymyxin B 0.75 µg/mL”, the “bacterial growth OD600” value was found to be 0.824.

As to `O=C(Cc1c[nH]c2ccccc12)N1CCCC(CO)(CCOc2ccccc2)C1` (stereo not given), the “bacterial growth OD600” value (polymyxin B 0.75 µg/mL) was determined as 0.785. For the molecule `CCC(=O)N1CCCC(C(=O)Nc2cccc(-c3cc4ccccc4[nH]3)c2)C1` (stereo not given), where the note is “polymyxin B 1 µg/mL”, the “bacterial growth OD600” value stood at 0.801. For the molecule `CCc1ccc(CN(C)C(=O)c2cc(Cn3ccc4ccccc43)[nH]n2)nc1`, where the note is “polymyxin B 0.75 µg/mL”, the “bacterial growth OD600” value is 0.005.

Consider `COCc1ccc(C(=O)Nc2ccc(-c3nc(CNC(=O)C(=O)CC(C)C)c(C)o3)cc2)o1`, for which, under “polymyxin B 0.75 µg/mL”, the “bacterial growth OD600” value came out at 0.396. As to `O=C(c1ccc(Oc2ccccc2)cc1)C1CCCN(C(=O)CN2C(=O)CSC2=O)C1` (stereo not given), the “bacterial growth OD600” value (polymyxin B 1 µg/mL) was 0.004. On the same count and under the same terms, the result for `O=C(Nc1ccc(Oc2ccccc2)nc1)C1CCN(Cc2ccsc2)CC1` reads 0.86.

`NC(=O)c1ccc(-c2ccc(F)c3c2OC(CNC(=O)CN2CC(c4ccccc4)CC2=O)C3)cc1` (stereo not given): the “bacterial growth OD600” value (polymyxin B 0.75 µg/mL) is 0.775.

For the molecule `Cc1ncc2c(c1CNC(=O)CN1CCCCC1)CCN(C(=O)c1ccc(-c3ccccc3)cc1)C2`, the “bacterial growth OD600” value (polymyxin B 0.75 µg/mL) was found to be 0.791. With `COc1cccc(O)c1CN1Cc2cc(Cl)ccc2OC(C)C1` (stereo not given), the “bacterial growth OD600” value (polymyxin B 0.75 µg/mL) came out at 0.117. As for `CCN(CC)CCNC(=O)c1coc(CN2CCN(c3ccccc3F)CC2)n1`, the “bacterial growth OD600” value (polymyxin B 1 µg/mL) is 1.2. Turning to `CCc1ccc(CN2CCC(Oc3cc(OC)ccc3C(=O)NCCOC)CC2)cc1`, the “bacterial growth OD600” value (polymyxin B 1 µg/mL) amounted to 1.26. Same read-out and setting: the result for `CCn1ccnc1CN1CCC(Oc2ccc(C(=O)NCCOC)cc2Cl)CC1` reads 0.829. Still for that read-out and setting: the result for `COc1cccc(CCC(=O)N2CCC(n3nccc3NC(=O)C3CCOC3)CC2)c1` (stereo not given) reads 0.987. As for `O=C1CCCN1CCC(=O)N1CCCC(CCc2ccc(F)c(F)c2)C1` (stereo not given), the “bacterial growth OD600” value (polymyxin B 0.75 µg/mL) worked out at 0.809.
